Assay results from US20030216444A1, “Benzoylpyridine derivative or its salt, fungicide containing it as an active ingredient, its production process and intermediate for producing it” (priority 2000, published 2003).
Some results were stated once for a whole list of compounds, not compound by compound. For some of these results: At least one compound was matched to its structure with a doubt left.

test system: Wheat Powdery Mildew (fungi of powdery mildew); assay: Tests on Preventive Effect Against Wheat Powdery Mildew; type: in vivo, Wheat (cultivar: Norin-61-go); details: spray before inoculation, concentration of 500 ppm, area of sporogony 6 to 8 days after inoculation

Structure (SMILES)	controlling index
CCCCCOc1ncc(C(F)(F)F)c(C(=O)c2c(C)cc(OC)c(OC)c2OC)c1Cl [compound 114]	4 (Area of lesions, number of lesions or area of sporogony is less than 10% of non-treated plot)
COc1cc(C)c(C(=O)c2ccncc2C(F)(F)F)cc1OC [compound 91]	4 (Area of lesions, number of lesions or area of sporogony is less than 10% of non-treated plot)
COc1cc(C)c2c(=O)c3c(C(F)(F)F)ccnc3oc2c1OC [compound 73]	4 (Area of lesions, number of lesions or area of sporogony is less than 10% of non-treated plot)
COc1ccc(C(=O)c2cnccc2C(F)(F)F)c(C)c1 [compound 8]	4 (Area of lesions, number of lesions or area of sporogony is less than 10% of non-treated plot)
COc1cc(C)c(C(=O)c2c(Cl)nc(Cl)c(C)c2C(F)(F)F)c(OC)c1OC [compound 58]	4 (Area of lesions, number of lesions or area of sporogony is less than 10% of non-treated plot)
COc1cc(C)c(C(=O)c2c(C(F)(F)F)cnc(OCCSC)c2Cl)c(OC)c1OC [compound 117]	4 (Area of lesions, number of lesions or area of sporogony is less than 10% of non-treated plot)
COc1cc(C)c(C(=O)c2c(Cl)ncc(C(C)=O)c2C(F)(F)F)c(OC)c1OC [compound 47]	4 (Area of lesions, number of lesions or area of sporogony is less than 10% of non-treated plot)
COc1cc(C)c(C(=O)c2c(C(F)(F)F)ccnc2N)c(OC)c1OC [compound 78]	4 (Area of lesions, number of lesions or area of sporogony is less than 10% of non-treated plot)
CCCCOc1cc(C(=O)c2c(C)cc(OC)c(OC)c2OC)c(C(F)(F)F)cn1 [compound 112]	4 (Area of lesions, number of lesions or area of sporogony is less than 10% of non-treated plot)
COc1cc(C)c(C(=O)c2nc(Cl)c(Cl)cc2C(F)(F)F)c(OC)c1OC [compound 138]	4 (Area of lesions, number of lesions or area of sporogony is less than 10% of non-treated plot)
COc1cc(C)c(C(=O)c2c(C(F)(F)F)ccnc2O)c(OC)c1OC [compound 77]	4 (Area of lesions, number of lesions or area of sporogony is less than 10% of non-treated plot)
COc1ccc(COc2cc(C(=O)c3c(C(F)(F)F)ccnc3Cl)c(C)cc2OC)cc1 [compound 83]	4 (Area of lesions, number of lesions or area of sporogony is less than 10% of non-treated plot)
COCCOc1ncc(C(F)(F)F)c(C(=O)c2c(C)cc(OC)c(OC)c2OC)c1Cl [compound 119]	4 (Area of lesions, number of lesions or area of sporogony is less than 10% of non-treated plot)
COc1cc(C)c(C(=O)c2cc(C(F)(F)F)nc(Cl)c2C(F)(F)F)c(OC)c1OC [compound 274]	4 (Area of lesions, number of lesions or area of sporogony is less than 10% of non-treated plot)
COc1cc(C)c(C(=O)c2c(Cl)nc(Cl)c(C(C)=O)c2C(F)(F)F)c(OC)c1OC [compound No. 62, 5-(2,3,4-trimethoxy-6-methylbenzoyl)-3-acetyl-2,6-dichloro-4-trifluoromethylpyridine]	4 (Area of lesions, number of lesions or area of sporogony is less than 10% of non-treated plot)
COc1cc(C)c(C(=O)c2cncc(C(C)=O)c2C(F)(F)F)c(OC)c1OC [compound 69]	4 (Area of lesions, number of lesions or area of sporogony is less than 10% of non-treated plot)
COc1cc(C)c(C(=O)c2c(Cl)cnc(Oc3ccccc3)c2C(F)(F)F)c(OC)c1OC [compound 87]	4 (Area of lesions, number of lesions or area of sporogony is less than 10% of non-treated plot)
COc1cc(C)c(C(=O)c2c(C(F)(F)F)cc(Cl)nc2Cl)cc1OC [compound No. 1]	4 (Area of lesions, number of lesions or area of sporogony is less than 10% of non-treated plot)
CCCCOc1ncc(C(F)(F)F)c(C(=O)c2c(C)cc(OC)c(OC)c2OC)c1Cl [compound 110]	4 (Area of lesions, number of lesions or area of sporogony is less than 10% of non-treated plot)
COc1cc(C)c(C(=O)c2c(F)c(F)nc(F)c2F)c(OC)c1OC [compound 262]	4 (Area of lesions, number of lesions or area of sporogony is less than 10% of non-treated plot)
COc1cc(C(=O)c2c(C)cc(OC)c(OC)c2OC)c(C(F)(F)F)cn1 [compound 107]	4 (Area of lesions, number of lesions or area of sporogony is less than 10% of non-treated plot)
COc1cc(C)c(C(=O)c2c(C(F)(F)F)cc(Cl)nc2Cl)cc1C [compound No. 2]	4 (Area of lesions, number of lesions or area of sporogony is less than 10% of non-treated plot)
COc1cc(C)c(C(=O)c2c(Cl)c(Cl)nc(Br)c2OC)c(OC)c1OC [compound 250]	4 (Area of lesions, number of lesions or area of sporogony is less than 10% of non-treated plot)
COC(=O)c1c(Cl)nc(Cl)c(C(=O)c2c(C)cc(OC)c(OC)c2OC)c1C(F)(F)F [compound 61]	4 (Area of lesions, number of lesions or area of sporogony is less than 10% of non-treated plot)

test system: Eggplant Powdery Mildew (fungi of eggplant powdery mildew); assay: not given; details: spray before inoculation, concentration of 500 ppm, area of sporogony 16 days after inoculation

Structure (SMILES)	controlling index
COc1cc(C)c(C(=O)c2ccncc2C(F)(F)F)c(OC)c1OC [compound 92]	4 (Area of lesions, number of lesions or area of sporogony is less than 10% of non-treated plot)
COc1cc(C)c(C(=O)c2c(Cl)cncc2C(F)(F)F)cc1OC [compound 101]	4 (Area of lesions, number of lesions or area of sporogony is less than 10% of non-treated plot)
COc1cc(C)c(C(=O)c2cnccc2C(F)(F)F)c(OC)c1OC [compound No. 7, 3-(2,3,4-trimethoxy-6-methylbenzoyl)-4-trifluoromethylpyridine]	4 (Area of lesions, number of lesions or area of sporogony is less than 10% of non-treated plot)
COc1cc(C)c(C(=O)c2c(C(F)(F)F)cc(Cl)nc2Cl)c(OC)c1OC [compound No. 3, 3-(2,3,4-trimethoxy-6-methylbenzoyl)-2,6-dichloro-4-trifluoromethylpyridine]	4 (Area of lesions, number of lesions or area of sporogony is less than 10% of non-treated plot)
COc1cc(C)c(C(=O)c2c(C(F)(F)F)cc(Cl)nc2Cl)cc1OC [compound No. 1]	4 (Area of lesions, number of lesions or area of sporogony is less than 10% of non-treated plot)
COc1cc(C)c(C(=O)c2cnccc2C(F)(F)F)cc1OC [compound No. 5]	4 (Area of lesions, number of lesions or area of sporogony is less than 10% of non-treated plot)

test system: Cucumber Powdery Mildew (fungi of powdery mildew); assay: not given; details: spray before inoculation, concentration of 500 ppm, area of sporogony 7 to 11 days after inoculation

Structure (SMILES)	controlling index
COc1cc(C)c(C(=O)c2c(Cl)c(Cl)nc(Cl)c2C(F)(F)F)cc1OC [compound No. 98]	4 (Area of lesions, number of lesions or area of sporogony is less than 10% of non-treated plot)
